Some entries share one result that the patent states for a list of compounds. At least one compound was matched to its structure with a doubt left.
How the values were obtained:
Format in all cases: in vivo
[1] = test system: diamondback moth (Plutella xylostella); experiment: Test A: control of diamondback moth on radish plant, foliar spray; conditions: neonate larvae on radish plant, 6 days, 25° C., visually assessed
[2] = test system: fall armyworm (Spodoptera frugiperda); experiment: Test B: control of fall armyworm on maize plant, foliar spray; conditions: 1-day-old larvae on maize plant, 25° C., visually rated
[3] = test system: potato leafhopper (Empoasca fabae); experiment: Test F: control of potato leafhopper on Soleil bean plant, contact and/or systemic; conditions: adults on Soleil bean plant, 6 days, 24° C.

SMILES	control efficacy, very good to excellent: feeding damage (40% or less feeding damage and/or 100% mortality) ([1]; sprayed at 50 ppm) [%]	control efficacy, very good to excellent: feeding damage (40% or less feeding damage and/or 100% mortality) ([2]; sprayed at 50 ppm) [%]	control efficacy, very good to excellent: mortality ([3]; sprayed at 250 ppm) [%]	control efficacy, very good to excellent: mortality ([3]; sprayed at 50 ppm) [%]	control efficacy, very good to excellent: feeding damage (40% or less feeding damage and/or 100% mortality) ([2]; sprayed at 250 ppm) [%]	control efficacy, very good to excellent: feeding damage (40% or less feeding damage and/or 100% mortality) ([1]; sprayed at 250 ppm) [%]
N#CC1CCN(Cc2cn(-c3ccc(Cl)c(F)c3)nc2-c2ccccc2F)CC1 [Compound 546]	≤ 40	≤ 40	≥ 80			
O=C(NC1CCN(Cc2cn(-c3ccc(Cl)c(Cl)c3)nc2-c2ccccc2F)CC1)C(F)(F)F [Compound 121]	≤ 40	≤ 40	≥ 80	≥ 80		
Fc1cc(-n2cc(CN3CCOCC3)c(-c3ccccc3F)n2)ccc1Cl [Compound 548]	≤ 40	≤ 40		≥ 80		
O=C(N[C@H]1CCN(Cc2cn(-c3ccc(Cl)c(Cl)c3)nc2-c2ccccc2F)C1)C1CC1 [Compound 782]	≤ 40	≤ 40	≥ 80		≤ 40	
N#CC1CCN(Cc2cn(-c3ccc(F)c(Cl)c3)nc2-c2ccccc2F)CC1 [Compound 41]	≤ 40	≤ 40	≥ 80			≤ 40
Cc1ccccc1-c1nn(-c2ccc(F)cc2)cc1CN1CCOCC1 [Compound 218]	≤ 40	≤ 40	≥ 80			
N#CC1CCN(Cc2cn(-c3ccc(Cl)cn3)nc2-c2c(F)cccc2F)CC1 [Compound 891]	≤ 40	≤ 40	≥ 80			
Fc1ccc(-c2nn(-c3ccc(Cl)cc3)cc2CN2CCOCC2)c(F)c1 [Compound 630]	≤ 40	≤ 40	≥ 80			
CC(=O)N[C@H]1CCN(Cc2cn(-c3ccc(Cl)c(Cl)c3)nc2-c2ccc(F)cc2)C1 [Compound 820]	≤ 40	≤ 40	≥ 80			
Fc1cc(F)c(-c2nn(-c3ccc(Cl)cc3)cc2CN2CCC(c3ncccn3)CC2)c(F)c1 [Compound 880]	≤ 40	≤ 40	≥ 80			
CC(=O)N[C@H]1CCN(Cc2cn(-c3cccc(C(F)(F)F)c3)nc2-c2ccc(F)cc2)C1 [Compound 660]	≤ 40	≤ 40	≥ 80	≥ 80		
Fc1ccccc1-c1nn(-c2cccc(Br)c2)cc1CN1CCC(c2nnco2)CC1 [Compound 804]	≤ 40	≤ 40	≥ 80			
COC(=O)C1CCN(Cc2cn(-c3ccc(Cl)c(Cl)c3)nc2-c2ccccc2Cl)CC1 [Compound 84]	≤ 40		≥ 80		≤ 40	≤ 40
Fc1ccccc1-c1nn(-c2cccc(C(F)(F)F)c2)cc1CN1CCOCC1 [Compound 219]	≤ 40	≤ 40	≥ 80			
Fc1ccccc1-c1nn(-c2ccc(Cl)cn2)cc1CN1CCC(c2nnco2)CC1 [Compound 868]	≤ 40	≤ 40	≥ 80			
Fc1ccccc1-c1nn(-c2ccc(Cl)c(Cl)c2)cc1CN1CCC(c2nnco2)CC1 [Compound 802]	≤ 40	≤ 40	≥ 80			
N#CC1CCN(Cc2cn(-c3ccc(Cl)c(Cl)c3)nc2-c2ccccc2Cl)CC1 [Compound 83]	≤ 40	≤ 40	≥ 80		≤ 40	≤ 40
O=c1[nH]nc(C2CCN(Cc3cn(-c4ccc(Cl)cn4)nc3-c3ccc(F)cc3F)CC2)o1 [Compound 794]	≤ 40	≤ 40	≥ 80			
Fc1ccc(-c2nn(-c3ccc(F)cc3F)cc2CN2CCOCC2)c(F)c1 [Compound 651]	≤ 40	≤ 40	≥ 80			
N#CC1CCN(Cc2cn(-c3ccc(F)cc3F)nc2-c2ccc(F)cc2F)CC1 [Compound 650]	≤ 40	≤ 40	≥ 80			
Fc1ccc(-n2cc(CN3CCC(n4cncn4)CC3)c(-c3ccccc3F)n2)cc1Cl [Compound 694]			≥ 80		≤ 40	
CC1COCCN1Cc1cn(-c2ccc(Cl)cc2)nc1-c1c(F)cc(F)cc1F (stereo not shown) [Compound 733]		≤ 40	≥ 80		≤ 40	
N#CC1CCN(Cc2cn(-c3ccc(C(F)(F)F)cn3)nc2-c2ccccc2F)CC1 [Compound 78]		≤ 40	≥ 80			
N#CC1CCN(Cc2cn(-c3ccc(Cl)cc3)nc2-c2c(F)cc(F)cc2F)CC1 [Compound 810]		≤ 40	≥ 80			

— US9113631B2, “1,3-diaryl-substituted heterocyclic pesticides” (E I DU PONT DE NEMOURS AND COMPANY, priority 2011, dated 2015)
